Assay results as given in paper PMC8831594.
Results are given in words; binding and its absence hold for the method and conditions named. Binding seen in cells or lysates may run through a third protein.

Biological target: T1, Lamina-associated polypeptide 2α (Lap2α), endogenous (mouse (endogenous in NIH 3T3)) (UniProt Q61033)
T1 sequence: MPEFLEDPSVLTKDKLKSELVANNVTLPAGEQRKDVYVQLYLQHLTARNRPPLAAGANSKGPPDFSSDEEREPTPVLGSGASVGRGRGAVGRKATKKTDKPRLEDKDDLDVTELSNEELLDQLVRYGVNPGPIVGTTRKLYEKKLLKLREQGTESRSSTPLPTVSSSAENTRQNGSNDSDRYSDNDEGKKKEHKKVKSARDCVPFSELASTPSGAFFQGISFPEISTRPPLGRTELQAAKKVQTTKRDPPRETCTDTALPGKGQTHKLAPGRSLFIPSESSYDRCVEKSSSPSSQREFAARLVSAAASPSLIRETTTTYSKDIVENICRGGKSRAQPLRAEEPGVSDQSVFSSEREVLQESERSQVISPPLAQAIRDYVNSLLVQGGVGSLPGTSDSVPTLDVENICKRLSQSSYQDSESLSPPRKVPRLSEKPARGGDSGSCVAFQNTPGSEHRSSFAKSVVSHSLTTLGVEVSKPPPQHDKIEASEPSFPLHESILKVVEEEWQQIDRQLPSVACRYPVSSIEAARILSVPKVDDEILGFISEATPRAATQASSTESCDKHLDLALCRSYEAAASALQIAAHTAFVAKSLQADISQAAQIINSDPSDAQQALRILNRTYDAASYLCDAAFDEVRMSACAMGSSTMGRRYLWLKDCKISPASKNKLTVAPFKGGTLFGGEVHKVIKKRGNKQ
Test: co-IP; 'similar co-immunoprecipitation experiments' (Supplementary Fig. S6a); bait and format not given; the methods describe an IP of endogenous proteins from NIH 3T3 lysate with Lap2α antibody or IgG, Dynabeads Protein G, 4 h at 4 °C

B1: Serum response factor (SRF) (protein, UniProt Q9JM73 1-504)
chain: MLPSQAGAAAALGRGSALGGNLNRTPTGRPGGGGGTRGANGGRVPGNGAGLGQSRLEREAAAAAAPTAGALYSGSEGDSESGEEEELGAERRGLKRSLSEMELGVVVGGPEAAAAAAGGYGPVSGAVSGAKPGKKTRGRVKIKMEFIDNKLRRYTTFSKRKTGIMKKAYELSTLTGTQVLLLVASETGHVYTFATRKLQPMITSETGKALIQTCLNSPDSPPRSDPTTDQRMSATGFEEPDLTYQVSESDSSGETKDTLKPAFTVTNLPGTTSTIQTAPSTSTTMQVSSGPSFPITNYLAPVSASVSPSAVSSANGTVLKSTGSGPVSSGGLMQLPTSFTLMPGGAVAQQVPVQAIHVHQAPQQASPSRDSSTDLTQTSSSGTVTLPATIMTSSVPTTVGGHMMYPSPHAVMYAPTSGLADGSLTVLNAFSQAPSTMQVSHSQVQEPGGVPQVFLTAPSGTVQIPVSAVQLHQMAVIGQQAGSSSNLTELQVVNLDATHSTKSE
binding: no binding
